## Drug screen on melanoma cell lines: cell count

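Human melanoma cell lines in 1,536-well plates were treated with two drugs together for 72 h, then fixed, stained and imaged. The read-out is cell count (nuclei) in % of the DMSO control; lower values mean stronger growth inhibition or killing. Every drug was used at one fixed concentration, the higher of two screened. No replicate spread is given; individual values may be noisy.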 This is part of the screen, not chosen by result. An entry leaves out what has no value listed here. A dash means that no value is listed here.

Drug key:
RKI-983, 2 µM: C[C@@H](N)c1ccc(C(=O)Nc2ccnc3[nH]ccc23)cc1
embelin, 6 µM: CCCCCCCCCCCC1=C(O)C(=O)C=C(O)C1=O
tipifarnib, 0.05 µM: Cn1cncc1[C@@](N)(c1ccc(Cl)cc1)c1ccc2c(c1)c(-c1cccc(Cl)c1)cc(=O)n2C
GW441756, 2 µM: Cn1cc(/C=C2\C(=O)Nc3cccnc32)c2ccccc21
ruxolitinib, 5 µM: N#CC[C@H](C1CCCC1)n1cc(-c2ncnc3[nH]ccc23)cn1
palbociclib, 0.2 µM: CC(=O)c1c(C)c2cnc(Nc3ccc(N4CCNCC4)cn3)nc2n(C2CCCC2)c1=O
ZM336372, 10 µM: Cc1ccc(NC(=O)c2cccc(N(C)C)c2)cc1NC(=O)c1ccc(O)cc1
KU-0063794, 0.1 µM: COc1ccc(-c2ccc3c(N4CCOCC4)nc(N4C[C@@H](C)O[C@@H](C)C4)nc3n2)cc1CO
vatalanib, 10 µM: Clc1ccc(Nc2nnc(Cc3ccncc3)c3ccccc23)cc1
SU6656, 2 µM: CN(C)S(=O)(=O)c1ccc2c(c1)/C(=C/c1cc3c([nH]1)CCCC3)C(=O)N2
KU-55933, 5 µM: O=c1cc(-c2cccc3c2Sc2ccccc2S3)oc(N2CCOCC2)c1
GSK650394, 0.8 µM: O=C(O)c1ccc(-c2c[nH]c3ncc(-c4ccccc4)cc23)cc1C1CCCC1
CP-690550, 5 µM: C[C@@H]1CCN(C(=O)CC#N)C[C@@H]1N(C)c1ncnc2[nH]ccc12
L-779450, 1 µM: Oc1cc(-c2nc(-c3ccccc3)[nH]c2-c2ccncc2)ccc1Cl
temozolomide, 10 µM: Cn1nnc2c(C(N)=O)ncn2c1=O
indole-3-carbinol, 4 µM: OCc1c[nH]c2ccccc12
OSI-906, 2 µM: C[C@]1(O)C[C@@H](c2nc(-c3ccc4ccc(-c5ccccc5)nc4c3)c3c(N)nccn32)C1
NVP-BEZ235, 0.02 µM: Cn1c(=O)n(-c2ccc(C(C)(C)C#N)cc2)c2c3cc(-c4cnc5ccccc5c4)ccc3ncc21
selumetinib, 0.075 µM: Cn1cnc2c(F)c(Nc3ccc(Br)cc3Cl)c(C(=O)NOCCO)cc21
GSK0660, 5 µM: COC(=O)c1sccc1S(=O)(=O)Nc1ccc(Nc2ccccc2)cc1OC

- indole-3-carbinol + CP-690550 : COLO 792: 76.6
- GSK650394 + ZM336372 : C32: 129
- palbociclib + KU-55933 : COLO 792: 43.8; C32: 65.8
- temozolomide + tipifarnib : C32: 104
- OSI-906 + tipifarnib : COLO 792: 74.7; C32: 86.9
- KU-55933 + GSK0660 : G-361: 66.1; A101D: 113; COLO 792: 99.3; C32: 134
- tipifarnib + embelin : COLO 792: 72.9; C32: 93.0
- vatalanib + GW441756 : COLO 792: 62.9; C32: 93.4
- SU6656 + GSK0660 : COLO 792: 72.8; C32: 106
- GSK0660 + NVP-BEZ235 : COLO 792: 48.1; C32: 89.5
- RKI-983 + indole-3-carbinol : A101D: 81.0; COLO 792: 68.6; C32: 80.4
- CP-690550 + temozolomide : COLO 792: 91.0; C32: 97.3
- OSI-906 + RKI-983 : COLO 792: 62.1
- GSK650394 + selumetinib : C32: 86.5
- vatalanib + SU6656 : COLO 792: 31.0
- ZM336372 + GW441756 : COLO 792: 105; C32: 102
- vatalanib + L-779450 : COLO 792: 64.5; C32: 60.3
- GSK0660 + CP-690550 : COLO 792: 92.1; C32: 113
- KU-0063794 + NVP-BEZ235 : C32: 107
- RKI-983 + ruxolitinib : COLO 792: 73.3; C32: 84.6
- L-779450 + GSK0660 : G-361: 61.1; A101D: 69.8; COLO 792: 102; C32: 70.5
- tipifarnib + GW441756 : COLO 792: 96.6; C32: 83.1
- KU-55933 + vatalanib : COLO 792: 59.4; C32: 94.3
- temozolomide + RKI-983 : A101D: 47.9; COLO 792: 75.0; C32: 66.9

2 of the entries, repeated:

Pair,G-361,A101D,COLO 792,C32
KU-55933 + vatalanib,-,-,59.4,94.3
GSK0660 + NVP-BEZ235,-,-,48.1,89.5

From a melanoma drug combination screen (doi:10.1371/journal.pone.0140310); values rounded.